One test deals with F508del in NIH 3T3 cells (Homo sapiens, UniProt P13569, DEL508-508). As to the kind of experiment: 3T3 assay: membrane potential optical assay for F508del correction. As to conditions: F508del NIH 3T3 cells.
The target of test [1] is CFTR-mediated chloride transport in human intestinal epithelial enteroid cells (Homo sapiens, UniProt P13569). As to the kind of experiment: Membrane potential dye, Enteroid Assay A. Particulars: for Ent. A Max Activity (%): % of chloride transport of triple combination control (3 μM N-[(6-amino-2-pyridyl)sulfonyl]-6-(3-fluoro-5-isobutoxy-phenyl)-2-[(4S)-2,2,4-trimethylpyrrolidin-1-yl]pyridine-3-carboxamide, 3 μM tezacaftor, 300 nM acute ivacaftor); for EC50: read-out: Ent. A EC50, enteroid cells, 18-24 hours incubation, acute 10 μM forskolin and 300 nM ivacaftor.

The chains behind the UniProt entries cited, without tags or fusion partners. A line that says so, or that is headed by a name, gives the form on record, which may keep a tag or linker.
UniProt P13569, with tags, fused parts or gaps DEL508-508: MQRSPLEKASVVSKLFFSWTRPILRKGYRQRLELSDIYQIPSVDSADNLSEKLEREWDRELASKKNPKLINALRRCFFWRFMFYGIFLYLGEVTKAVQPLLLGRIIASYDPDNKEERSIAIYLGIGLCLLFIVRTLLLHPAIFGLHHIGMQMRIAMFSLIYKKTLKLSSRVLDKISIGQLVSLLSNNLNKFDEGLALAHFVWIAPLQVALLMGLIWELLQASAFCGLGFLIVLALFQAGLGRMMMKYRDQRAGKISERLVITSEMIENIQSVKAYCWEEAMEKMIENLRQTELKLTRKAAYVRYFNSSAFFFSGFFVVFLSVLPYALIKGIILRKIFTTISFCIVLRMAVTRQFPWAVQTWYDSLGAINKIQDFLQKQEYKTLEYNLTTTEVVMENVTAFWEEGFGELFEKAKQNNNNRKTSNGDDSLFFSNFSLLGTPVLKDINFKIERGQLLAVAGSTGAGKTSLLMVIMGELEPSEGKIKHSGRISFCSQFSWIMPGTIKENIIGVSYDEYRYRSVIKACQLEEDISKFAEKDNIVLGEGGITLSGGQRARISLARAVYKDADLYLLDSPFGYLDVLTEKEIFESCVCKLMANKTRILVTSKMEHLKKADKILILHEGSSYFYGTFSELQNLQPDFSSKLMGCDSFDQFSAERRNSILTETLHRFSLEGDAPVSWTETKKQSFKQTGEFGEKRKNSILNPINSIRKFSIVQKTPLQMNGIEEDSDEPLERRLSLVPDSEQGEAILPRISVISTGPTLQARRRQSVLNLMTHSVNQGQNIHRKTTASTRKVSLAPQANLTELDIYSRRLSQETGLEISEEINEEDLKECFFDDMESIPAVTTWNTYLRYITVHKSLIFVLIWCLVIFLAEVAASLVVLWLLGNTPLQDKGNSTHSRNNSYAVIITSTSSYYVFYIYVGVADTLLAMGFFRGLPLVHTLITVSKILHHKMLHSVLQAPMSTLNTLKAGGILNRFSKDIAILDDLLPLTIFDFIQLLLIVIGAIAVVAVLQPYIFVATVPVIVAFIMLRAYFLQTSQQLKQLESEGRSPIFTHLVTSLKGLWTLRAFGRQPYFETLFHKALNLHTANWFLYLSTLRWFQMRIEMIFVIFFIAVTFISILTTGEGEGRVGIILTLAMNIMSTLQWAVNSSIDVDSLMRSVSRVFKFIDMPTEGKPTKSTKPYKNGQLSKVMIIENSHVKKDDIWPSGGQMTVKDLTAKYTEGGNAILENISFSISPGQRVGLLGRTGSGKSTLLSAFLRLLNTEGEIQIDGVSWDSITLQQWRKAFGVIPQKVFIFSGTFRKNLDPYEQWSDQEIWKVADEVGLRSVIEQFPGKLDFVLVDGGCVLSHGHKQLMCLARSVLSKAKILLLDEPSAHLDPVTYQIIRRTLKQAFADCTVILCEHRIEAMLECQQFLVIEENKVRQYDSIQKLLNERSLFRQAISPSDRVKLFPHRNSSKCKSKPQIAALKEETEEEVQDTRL

The match of structure and compound is tentative.

The source of these data is patent publication US20230416275A1, “MODULATORS OF CYSTIC FIBROSIS TRANSMEMBRANE CONDUCTANCE REGULATOR” (VERTEX PHARMACEUTICALS INCORPORATED, priority 2020, published 2023).

The EC50 is the concentration at which the effect is half-maximal. Consider `Cc1cccc(C)c1-c1cc2nc(n1)NS(=O)(=O)c1cccc(c1)NCc1cc(ccc1Cl)O2`, for which the “3T3 Max Activity (%)” value on F508del in NIH 3T3 cells (efficacy compared to lumacaftor in combination with acutely added 300 nM Ivacaftor) is “+++ (+++ is >60%)”. Also, the half-maximal effective concentration (EC50) at F508del in NIH 3T3 cells (read-out: 3T3 EC50, compound incubation 18-24 hours at 37° C., forskolin activation) is less than 1 µM. In addition, in test [1], the “Ent. A Max Activity (%)” value was “++ (++ is 30-60%)” and the EC50 lay within 1 to 3 µM.

For the molecule `Cc1cccc(C)c1-c1cc2nc(n1)NS(=O)(=O)c1cccc(c1)NC(=O)[C@@H]1C[C@@H](CN(CCC(C)(O)C(F)(F)F)C1)O2` (stereo partly drawn), in test [1], the “Ent. A Max Activity (%)” value is listed as “+++ (+++ is >60%)” and the EC50 is 1 to 3 µM.
